Paper PMC10111703
These are yes or no findings as the source states them, for the method shown. Binding seen in cells or lysates may run through a third protein. Some results given as binding are weak or reduced against the parent protein; the word gives no strength.

Chains of the proteins cited; added tags and fusions are not shown.
UniProt Q14694: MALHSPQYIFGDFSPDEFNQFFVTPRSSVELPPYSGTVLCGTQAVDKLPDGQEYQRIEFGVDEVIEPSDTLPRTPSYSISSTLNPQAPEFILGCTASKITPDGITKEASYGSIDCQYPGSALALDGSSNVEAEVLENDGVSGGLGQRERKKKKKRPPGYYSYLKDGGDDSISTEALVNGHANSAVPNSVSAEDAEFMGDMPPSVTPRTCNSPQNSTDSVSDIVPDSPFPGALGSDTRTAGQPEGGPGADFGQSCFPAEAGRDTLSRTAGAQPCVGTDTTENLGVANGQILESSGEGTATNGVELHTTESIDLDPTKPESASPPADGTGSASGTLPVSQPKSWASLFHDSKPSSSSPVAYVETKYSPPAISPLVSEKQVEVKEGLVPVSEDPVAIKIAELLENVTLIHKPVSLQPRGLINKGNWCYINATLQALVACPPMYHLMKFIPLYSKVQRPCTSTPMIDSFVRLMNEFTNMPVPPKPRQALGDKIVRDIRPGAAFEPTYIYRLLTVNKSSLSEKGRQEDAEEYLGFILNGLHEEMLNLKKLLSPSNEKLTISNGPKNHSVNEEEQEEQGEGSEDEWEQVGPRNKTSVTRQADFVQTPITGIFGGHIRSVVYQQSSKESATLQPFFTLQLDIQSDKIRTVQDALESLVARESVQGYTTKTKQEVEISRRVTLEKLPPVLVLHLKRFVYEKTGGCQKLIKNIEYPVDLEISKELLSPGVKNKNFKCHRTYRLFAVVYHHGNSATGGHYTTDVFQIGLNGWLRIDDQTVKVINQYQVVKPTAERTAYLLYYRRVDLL

Biological target: USP10 (human (endogenous in HGC-27 and MGC80-3)) (UniProt Q14694)
Assay: co-IP; endogenous proteins in HGC-27 or MGC80-3 cells; precipitation with DDX21 and, in turn, with USP10, read by Western blot; also done in stably LINC00240-KD (less USP10 with DDX21) and LINC00240-OE (more USP10 with DDX21) cells

binding: binds
B1: DDX21 (protein, UniProt Q9NR30-1 1-783)
chain: MPGKLRSDAGLESDTAMKKGETLRKQTEEKEKKEKPKSDKTEEIAEEEETVFPKAKQVKKKAEPSEVDMNSPKSKKAKKKEEPSQNDISPKTKSLRKKKEPIEKKVVSSKTKKVTKNEEPSEEEIDAPKPKKMKKEKEMNGETREKSPKLKNGFPHPEPDCNPSEAASEESNSEIEQEIPVEQKEGAFSNFPISEETIKLLKGRGVTFLFPIQAKTFHHVYSGKDLIAQARTGTGKTFSFAIPLIEKLHGELQDRKRGRAPQVLVLAPTRELANQVSKDFSDITKKLSVACFYGGTPYGGQFERMRNGIDILVGTPGRIKDHIQNGKLDLTKLKHVVLDEVDQMLDMGFADQVEEILSVAYKKDSEDNPQTLLFSATCPHWVFNVAKKYMKSTYEQVDLIGKKTQKTAITVEHLAIKCHWTQRAAVIGDVIRVYSGHQGRTIIFCETKKEAQELSQNSAIKQDAQSLHGDIPQKQREITLKGFRNGSFGVLVATNVAARGLDIPEVDLVIQSSPPKDVESYIHRSGRTGRAGRTGVCICFYQHKEEYQLVQVEQKAGIKFKRIGVPSATEIIKASSKDAIRLLDSVPPTAISHFKQSAEKLIEEKGAVEALAAALAHISGATSVDQRSLINSNVGFVTMILQCSIEMPNISYAWKELKEQLGEEIDSKVKGMVFLKGKLGVCFDVPTASVTEIQEKWHDSRRWQLSVATEQPELEGPREGYGGFRGQREGSRGFRGQRDGNRRFRGQREGSRGPRGQRSGGGNKSNRSQNKGQKRSFSKAFGQ
